The supplement of paper PMC10849652
Some of the results follow.

Sequences of proteins named here, by UniProt entry; tags and fusion partners are left off. A change or cut given only in a name is not applied to a line headed by its entry.
UniProt Q03405, whole entry, looked up: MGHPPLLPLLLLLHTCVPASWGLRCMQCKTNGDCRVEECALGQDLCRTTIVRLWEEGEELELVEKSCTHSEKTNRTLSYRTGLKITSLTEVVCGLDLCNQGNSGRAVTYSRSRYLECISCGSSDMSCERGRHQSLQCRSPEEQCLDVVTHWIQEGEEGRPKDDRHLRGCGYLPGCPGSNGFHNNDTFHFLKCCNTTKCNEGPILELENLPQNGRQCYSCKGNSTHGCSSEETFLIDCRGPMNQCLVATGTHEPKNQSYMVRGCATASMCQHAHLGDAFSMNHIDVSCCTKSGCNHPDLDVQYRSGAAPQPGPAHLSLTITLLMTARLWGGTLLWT
UniProt Q92521: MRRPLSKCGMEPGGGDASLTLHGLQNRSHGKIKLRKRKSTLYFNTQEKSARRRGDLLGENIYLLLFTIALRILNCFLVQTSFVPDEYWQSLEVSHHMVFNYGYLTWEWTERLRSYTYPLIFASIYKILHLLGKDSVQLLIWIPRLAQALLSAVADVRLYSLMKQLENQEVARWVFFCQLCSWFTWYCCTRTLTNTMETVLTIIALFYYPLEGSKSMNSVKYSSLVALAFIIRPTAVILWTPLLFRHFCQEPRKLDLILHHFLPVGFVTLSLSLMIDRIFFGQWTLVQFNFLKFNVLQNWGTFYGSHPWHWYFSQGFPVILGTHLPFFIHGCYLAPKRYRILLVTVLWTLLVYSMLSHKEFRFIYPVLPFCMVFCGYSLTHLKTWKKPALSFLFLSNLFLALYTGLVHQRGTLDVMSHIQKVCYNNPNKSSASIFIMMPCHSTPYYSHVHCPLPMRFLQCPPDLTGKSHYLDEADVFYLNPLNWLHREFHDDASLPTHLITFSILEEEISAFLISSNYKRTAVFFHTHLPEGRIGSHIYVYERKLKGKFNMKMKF
UniProt Q8IUZ5: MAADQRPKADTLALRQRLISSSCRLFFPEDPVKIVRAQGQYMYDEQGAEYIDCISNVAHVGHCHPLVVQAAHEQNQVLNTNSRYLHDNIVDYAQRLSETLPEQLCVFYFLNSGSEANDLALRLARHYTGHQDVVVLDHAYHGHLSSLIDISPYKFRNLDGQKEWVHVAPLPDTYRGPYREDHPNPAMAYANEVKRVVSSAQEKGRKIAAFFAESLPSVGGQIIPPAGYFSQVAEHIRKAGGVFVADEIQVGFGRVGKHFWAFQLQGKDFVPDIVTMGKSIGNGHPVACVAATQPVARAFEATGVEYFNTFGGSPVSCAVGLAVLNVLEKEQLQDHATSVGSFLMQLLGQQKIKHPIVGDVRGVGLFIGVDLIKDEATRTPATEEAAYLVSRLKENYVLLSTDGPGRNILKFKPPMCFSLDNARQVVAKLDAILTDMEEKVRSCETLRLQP
UniProt Q6PCE3: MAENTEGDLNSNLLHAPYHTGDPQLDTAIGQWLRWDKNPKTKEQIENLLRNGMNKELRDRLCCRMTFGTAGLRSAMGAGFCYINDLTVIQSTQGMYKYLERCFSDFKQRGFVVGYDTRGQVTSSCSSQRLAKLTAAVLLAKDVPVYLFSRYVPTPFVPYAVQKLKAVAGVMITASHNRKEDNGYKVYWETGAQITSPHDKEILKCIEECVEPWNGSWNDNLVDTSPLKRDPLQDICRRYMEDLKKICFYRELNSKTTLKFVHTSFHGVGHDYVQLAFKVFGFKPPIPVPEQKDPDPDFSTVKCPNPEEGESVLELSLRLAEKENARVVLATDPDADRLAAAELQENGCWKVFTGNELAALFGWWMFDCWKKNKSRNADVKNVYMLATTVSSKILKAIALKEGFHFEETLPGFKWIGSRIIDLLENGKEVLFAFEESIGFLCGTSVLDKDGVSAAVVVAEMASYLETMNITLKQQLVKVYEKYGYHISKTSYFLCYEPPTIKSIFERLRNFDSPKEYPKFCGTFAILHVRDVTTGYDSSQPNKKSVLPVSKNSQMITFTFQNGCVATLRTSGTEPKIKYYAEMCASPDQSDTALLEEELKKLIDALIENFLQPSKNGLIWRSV
UniProt Q9NXJ5: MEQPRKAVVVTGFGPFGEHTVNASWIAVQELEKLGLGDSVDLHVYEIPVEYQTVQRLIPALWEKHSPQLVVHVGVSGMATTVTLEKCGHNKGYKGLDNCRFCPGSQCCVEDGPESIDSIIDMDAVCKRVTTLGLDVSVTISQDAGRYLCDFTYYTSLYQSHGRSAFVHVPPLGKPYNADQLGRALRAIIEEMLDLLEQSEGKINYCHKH
UniProt Q7Z7B1: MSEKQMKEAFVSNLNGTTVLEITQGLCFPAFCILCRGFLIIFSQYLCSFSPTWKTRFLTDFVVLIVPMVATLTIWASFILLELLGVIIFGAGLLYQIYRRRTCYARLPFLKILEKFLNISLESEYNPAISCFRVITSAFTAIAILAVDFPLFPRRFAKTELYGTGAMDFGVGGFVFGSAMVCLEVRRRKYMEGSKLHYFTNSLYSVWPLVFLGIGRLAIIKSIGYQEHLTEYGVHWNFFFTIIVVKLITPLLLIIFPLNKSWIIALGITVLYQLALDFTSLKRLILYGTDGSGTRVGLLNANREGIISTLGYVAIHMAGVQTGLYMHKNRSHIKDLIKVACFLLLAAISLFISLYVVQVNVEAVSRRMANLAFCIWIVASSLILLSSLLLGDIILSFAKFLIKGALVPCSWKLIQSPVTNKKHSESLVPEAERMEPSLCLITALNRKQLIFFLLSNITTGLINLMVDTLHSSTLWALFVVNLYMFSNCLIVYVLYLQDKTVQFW
UniProt P56589: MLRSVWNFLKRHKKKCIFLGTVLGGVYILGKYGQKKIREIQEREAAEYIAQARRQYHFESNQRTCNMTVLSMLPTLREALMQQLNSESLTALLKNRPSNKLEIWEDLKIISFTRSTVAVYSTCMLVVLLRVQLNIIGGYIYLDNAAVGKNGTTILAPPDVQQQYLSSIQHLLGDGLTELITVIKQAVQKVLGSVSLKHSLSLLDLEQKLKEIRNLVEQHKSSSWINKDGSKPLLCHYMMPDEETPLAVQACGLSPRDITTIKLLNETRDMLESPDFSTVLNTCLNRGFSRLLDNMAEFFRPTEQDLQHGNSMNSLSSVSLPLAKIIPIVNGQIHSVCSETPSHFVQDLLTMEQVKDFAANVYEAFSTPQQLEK
UniProt P60673: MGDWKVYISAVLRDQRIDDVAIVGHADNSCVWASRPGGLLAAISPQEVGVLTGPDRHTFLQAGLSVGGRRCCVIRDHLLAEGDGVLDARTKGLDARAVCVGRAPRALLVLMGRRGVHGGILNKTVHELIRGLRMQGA
UniProt Q8N2A8: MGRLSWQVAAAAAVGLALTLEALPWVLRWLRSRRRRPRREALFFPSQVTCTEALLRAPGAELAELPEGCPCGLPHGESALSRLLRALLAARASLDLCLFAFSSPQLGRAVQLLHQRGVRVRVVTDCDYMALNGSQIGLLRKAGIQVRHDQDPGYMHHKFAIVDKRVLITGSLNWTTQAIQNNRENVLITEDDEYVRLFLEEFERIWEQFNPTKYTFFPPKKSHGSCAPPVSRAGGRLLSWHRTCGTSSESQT
UniProt Q9BZM1: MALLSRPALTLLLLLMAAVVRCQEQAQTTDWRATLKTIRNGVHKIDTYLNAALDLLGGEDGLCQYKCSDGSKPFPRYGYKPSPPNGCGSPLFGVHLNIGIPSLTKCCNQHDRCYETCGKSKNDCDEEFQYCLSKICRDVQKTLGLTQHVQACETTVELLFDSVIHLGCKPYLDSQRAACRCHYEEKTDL
UniProt Q7Z412: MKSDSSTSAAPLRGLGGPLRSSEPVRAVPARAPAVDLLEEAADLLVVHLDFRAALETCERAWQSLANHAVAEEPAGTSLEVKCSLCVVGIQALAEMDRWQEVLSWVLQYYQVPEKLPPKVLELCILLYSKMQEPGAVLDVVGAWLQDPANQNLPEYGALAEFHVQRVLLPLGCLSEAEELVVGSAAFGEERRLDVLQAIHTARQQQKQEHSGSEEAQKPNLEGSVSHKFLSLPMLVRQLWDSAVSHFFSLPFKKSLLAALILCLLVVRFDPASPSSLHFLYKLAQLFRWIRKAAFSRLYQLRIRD
UniProt Q8IXK0: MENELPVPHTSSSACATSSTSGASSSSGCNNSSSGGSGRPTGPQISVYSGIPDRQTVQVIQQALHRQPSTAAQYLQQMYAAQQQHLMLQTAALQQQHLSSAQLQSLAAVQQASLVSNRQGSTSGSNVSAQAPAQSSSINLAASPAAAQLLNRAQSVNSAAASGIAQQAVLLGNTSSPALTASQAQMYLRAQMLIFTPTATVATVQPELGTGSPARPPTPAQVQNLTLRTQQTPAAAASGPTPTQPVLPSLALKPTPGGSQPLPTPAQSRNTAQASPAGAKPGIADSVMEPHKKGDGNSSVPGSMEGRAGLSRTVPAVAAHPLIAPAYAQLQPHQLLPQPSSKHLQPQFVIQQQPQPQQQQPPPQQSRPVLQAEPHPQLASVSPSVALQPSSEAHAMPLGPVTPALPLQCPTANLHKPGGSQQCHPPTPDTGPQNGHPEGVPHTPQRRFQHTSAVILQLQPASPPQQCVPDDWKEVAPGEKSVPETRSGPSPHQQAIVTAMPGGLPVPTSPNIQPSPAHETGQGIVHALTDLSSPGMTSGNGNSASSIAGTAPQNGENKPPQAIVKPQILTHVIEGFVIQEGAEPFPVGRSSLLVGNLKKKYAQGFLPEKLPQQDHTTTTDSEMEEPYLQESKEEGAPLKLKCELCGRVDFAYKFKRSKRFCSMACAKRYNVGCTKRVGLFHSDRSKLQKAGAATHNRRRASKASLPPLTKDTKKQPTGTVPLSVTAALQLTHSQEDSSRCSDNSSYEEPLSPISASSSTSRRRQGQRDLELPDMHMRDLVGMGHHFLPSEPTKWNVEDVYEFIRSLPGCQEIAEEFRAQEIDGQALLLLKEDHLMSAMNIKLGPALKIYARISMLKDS
UniProt Q9Y263: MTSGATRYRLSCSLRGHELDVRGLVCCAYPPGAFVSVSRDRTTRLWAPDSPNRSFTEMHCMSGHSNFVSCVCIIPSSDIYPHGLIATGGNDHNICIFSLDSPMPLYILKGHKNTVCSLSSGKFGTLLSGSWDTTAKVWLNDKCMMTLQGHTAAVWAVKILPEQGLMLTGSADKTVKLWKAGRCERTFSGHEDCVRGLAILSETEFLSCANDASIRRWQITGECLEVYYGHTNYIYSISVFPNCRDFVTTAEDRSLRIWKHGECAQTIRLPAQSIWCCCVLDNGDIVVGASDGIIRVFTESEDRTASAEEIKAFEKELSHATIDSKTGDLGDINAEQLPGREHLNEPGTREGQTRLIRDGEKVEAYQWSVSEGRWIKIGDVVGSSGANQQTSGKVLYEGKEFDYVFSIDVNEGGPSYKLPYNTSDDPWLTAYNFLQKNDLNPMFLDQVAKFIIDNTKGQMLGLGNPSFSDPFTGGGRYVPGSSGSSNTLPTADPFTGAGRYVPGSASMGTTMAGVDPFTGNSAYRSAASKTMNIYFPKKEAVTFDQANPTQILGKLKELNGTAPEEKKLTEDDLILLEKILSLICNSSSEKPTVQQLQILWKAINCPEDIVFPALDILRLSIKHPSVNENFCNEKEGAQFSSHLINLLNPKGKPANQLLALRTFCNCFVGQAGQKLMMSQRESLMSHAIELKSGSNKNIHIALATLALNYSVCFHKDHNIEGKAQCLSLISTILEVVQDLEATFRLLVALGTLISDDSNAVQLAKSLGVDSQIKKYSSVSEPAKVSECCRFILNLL
UniProt O94880: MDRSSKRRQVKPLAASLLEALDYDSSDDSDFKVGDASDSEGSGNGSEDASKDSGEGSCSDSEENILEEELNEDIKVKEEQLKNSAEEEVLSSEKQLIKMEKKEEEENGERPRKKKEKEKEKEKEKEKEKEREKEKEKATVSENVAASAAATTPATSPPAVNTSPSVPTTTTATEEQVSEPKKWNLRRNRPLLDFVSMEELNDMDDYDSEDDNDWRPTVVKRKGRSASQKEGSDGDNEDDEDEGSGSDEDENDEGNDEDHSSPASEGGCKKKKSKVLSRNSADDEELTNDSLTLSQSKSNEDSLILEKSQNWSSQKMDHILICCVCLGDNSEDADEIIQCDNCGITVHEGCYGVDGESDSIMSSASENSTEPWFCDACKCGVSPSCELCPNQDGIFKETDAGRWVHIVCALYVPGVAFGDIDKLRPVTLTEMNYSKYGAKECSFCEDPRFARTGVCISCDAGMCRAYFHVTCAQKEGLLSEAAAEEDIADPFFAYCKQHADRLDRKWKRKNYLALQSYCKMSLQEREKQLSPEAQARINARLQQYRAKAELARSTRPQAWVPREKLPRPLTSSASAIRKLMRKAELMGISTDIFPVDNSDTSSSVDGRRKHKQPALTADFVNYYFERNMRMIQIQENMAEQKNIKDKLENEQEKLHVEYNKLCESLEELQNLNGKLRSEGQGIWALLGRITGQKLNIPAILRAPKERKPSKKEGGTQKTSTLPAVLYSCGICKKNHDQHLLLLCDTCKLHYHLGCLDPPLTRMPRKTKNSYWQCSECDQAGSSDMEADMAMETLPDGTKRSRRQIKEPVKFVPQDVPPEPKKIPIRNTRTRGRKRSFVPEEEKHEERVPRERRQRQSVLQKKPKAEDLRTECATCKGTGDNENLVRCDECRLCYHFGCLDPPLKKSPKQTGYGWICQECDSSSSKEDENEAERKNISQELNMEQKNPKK

What was measured:
Experiment in all cases: log2 fold change, soluble protein after heating vs DMSO (PISA); higher = thermal stabilisation; K562 cells, 10 uM, 30 min; active = over 0.2 and 3.5 SD of the protein, either way, in both replicates (recomputed)
[1] = compound: C1=CC=C(C=C1)[C@H](COC2=CC3=C(C=C2)NC(=O)N3)NC(=O)C4=CC=CN(C4=O)CC5=CC(=C(C=C5)F)F
Method in brief: (§1)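 K562 cells at 2×10^6 cells/mL were exposed to 10 μM compound for 30 min, then aliquots were heated for 3 min across 48°C-58°C, pooled, and extracted in PBS containing 0.5% NP-40 at 4°C. The supernatant after 21,000xg for 90 min was taken as soluble protein and measured by TMTpro 16plex LC-MS/MS with channel sums equalised. Thermal stability is reported relative to control samples, with values from duplicates. Fold changes are given on a log2 scale.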

[2] = compound: CC1=C(SC2=C1C(=N[C@H](C3=NN=C(N32)C)CC(=O)N)C4=CC=C(C=C4)Cl)C
Method in brief: as §1

[3] = compound: CC1=C2C(=CC=C1)N=C(N(C2=O)C3=CC=CC=C3C)CN4C=NC5=C(N=CN=C54)N
Method in brief: as §1

[4] = compound: Cc1sc2c(c1C)C(c1ccc(Cl)cc1)=N[C@@H](CC(=O)OC(C)(C)C)c1nnc(C)n1-2
Method in brief: as §1

[5] = compound: c1ccc([C@@H]2C[C@H]2NC2CCNCC2)cc1
Method in brief: as §1

Measured: log2 fold change

PHF23 (UniProt Q9BUL5)
inactive: [1] 0.019 | [2] -0.038 | [3] 0.053 | [4] -0.014 | [5] 0.052

PLAUR (UniProt Q03405)
inactive: [2] -0.08 | [5] -0.002

PIGB (UniProt Q92521)
inactive: [2] 0.099 | [4] 0.034 | [5] 0.082

PHYKPL (UniProt Q8IUZ5)
inactive: [4] -0.046

PGM2L1 (UniProt Q6PCE3)
inactive: [1] -0.001 | [2] 0.011 | [3] 0.007 | [4] 0.021 | [5] 0.058

PIP5K1C isoform 3 (UniProt O60331)
inactive: [1] 0.046 | [4] -0.149

PGPEP1 (UniProt Q9NXJ5)
inactive: [1] -0.072 | [2] 0.036 | [3] -0.485 | [5] -0.094

PIGW (UniProt Q7Z7B1)
inactive: [1] -0.073 | [3] 0.046 | [4] -0.067

PHF19 isoform 2 (UniProt Q5T6S3)
inactive: [1] 0.002 | [3] 0.067 | [4] 0.035

PEX3 (UniProt P56589)
inactive: [2] -0.166 | [3] -0.026 | [4] 0.012 | [5] -0.003

PHKA2 (UniProt P46019)
inactive: [1] -0.018 | [2] -0.003 | [3] 0.053 | [4] 0.023 | [5] 0.024

PKHD1 (UniProt P08F94)
inactive: [3] 0.175

PLBD2 (UniProt Q8NHP8)
inactive: [1] 0.011 | [2] 0.01 | [3] 0.01 | [4] -0.006 | [5] 0.007

PFAS (UniProt O15067)
inactive: [1] -0.08 | [2] 0.021 | [3] 0.144 | [4] 0.014 | [5] -0.065

PFN3 (UniProt P60673)
inactive: [2] 0.733 | [3] 0.146 | [4] 0.023 | [5] -0.101

PFN1 (UniProt I3L3D5)
inactive: [1] 0.068 | [2] -0.069 | [4] 0.194 | [5] -0.104

PLD6 (UniProt Q8N2A8)
inactive: [3] 0.072

PLA2G12A (UniProt Q9BZM1)
inactive: [1] -0.011 | [2] 0.07 | [4] 0.112 | [5] 0.239

PHLPP1 (UniProt O60346)
inactive: [2] 0.02 | [4] 0.092 | [5] 0.023

PEX26 (UniProt Q7Z412)
inactive: [2] 0.076 | [3] 0.116 | [4] 0 | [5] 0.023

PHC2 isoform 5 (UniProt Q8IXK0)
inactive: [1] -0.103 | [2] -0.21 | [3] -0.093 | [5] 0.267

PLAA (UniProt Q9Y263)
inactive: [1] -0.025 | [2] 0.021 | [3] 0.063 | [4] 0.002 | [5] 0.008

PHF14 (UniProt O94880)
inactive: [3] -0.452 | [4] 0.09

2 successive records already listed, for reference:
PLAA (UniProt Q9Y263)
inactive: [1] -0.025 | [2] 0.021 | [3] 0.063 | [4] 0.002 | [5] 0.008

PHF14 (UniProt O94880)
inactive: [3] -0.452 | [4] 0.09

Carrying on.

PIGM (UniProt Q9H3S5)
inactive: [1] -0.022 | [2] 0.113 | [3] 0.061 | [5] -0.158

PIK3CA (UniProt P42336)
inactive: [1] 0.017 | [2] -0.045 | [5] 0.181

PIBF1 (UniProt Q8WXW3)
inactive: [1] -0.07 | [4] 0.015

PHKA1 (UniProt P46020)
inactive: [1] 0.028 | [2] -0.078 | [4] 0.103 | [5] 0.011

PGD (UniProt K7EM49)
inactive: [1] 0.032 | [3] 0.124

PIGN (UniProt O95427)
inactive: [1] 0.15 | [2] -0.064 | [4] 0.071 | [5] -0.101
